These are yes or no findings as the source states them, for the method shown.
Key:
Assay in all cases: two-hybrid; AD fusions (pGADT7) in S. cerevisiae Y187 mated with BD fusions (pGBKT7) in Y2HGold; diploids spotted at 5 x 10^2, 5 x 10^3 and 5 x 10^4 cells on double-dropout (SDM/-Leu/-Trp/X-α-Gal/AbA) and quadruple-dropout (SDM/-Leu/-Trp/-Ade/-His/X-α-Gal/AbA) plates, 3 days at 30 °C
[1] = molecular target: T1, Phr1 of Beauveria bassiana (Beauveria bassiana) (UniProt J4KQS2)
T1 sequence: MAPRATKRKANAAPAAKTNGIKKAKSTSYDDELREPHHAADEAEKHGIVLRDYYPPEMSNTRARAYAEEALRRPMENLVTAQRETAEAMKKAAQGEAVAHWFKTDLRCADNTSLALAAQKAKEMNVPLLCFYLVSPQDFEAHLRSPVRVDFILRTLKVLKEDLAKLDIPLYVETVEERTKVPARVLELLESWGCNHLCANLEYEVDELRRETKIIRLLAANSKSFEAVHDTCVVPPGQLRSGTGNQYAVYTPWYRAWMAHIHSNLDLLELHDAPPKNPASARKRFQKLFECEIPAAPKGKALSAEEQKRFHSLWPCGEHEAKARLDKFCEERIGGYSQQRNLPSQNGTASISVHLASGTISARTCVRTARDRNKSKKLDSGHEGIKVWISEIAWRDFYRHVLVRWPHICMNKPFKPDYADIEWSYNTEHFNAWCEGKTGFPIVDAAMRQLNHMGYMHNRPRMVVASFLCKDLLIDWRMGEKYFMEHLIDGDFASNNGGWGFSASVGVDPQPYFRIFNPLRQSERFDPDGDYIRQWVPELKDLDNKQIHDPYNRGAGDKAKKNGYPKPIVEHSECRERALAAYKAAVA

[2] = molecular target: T2, Phr2 of Beauveria bassiana (Beauveria bassiana) (UniProt J4WK53)
T2 sequence: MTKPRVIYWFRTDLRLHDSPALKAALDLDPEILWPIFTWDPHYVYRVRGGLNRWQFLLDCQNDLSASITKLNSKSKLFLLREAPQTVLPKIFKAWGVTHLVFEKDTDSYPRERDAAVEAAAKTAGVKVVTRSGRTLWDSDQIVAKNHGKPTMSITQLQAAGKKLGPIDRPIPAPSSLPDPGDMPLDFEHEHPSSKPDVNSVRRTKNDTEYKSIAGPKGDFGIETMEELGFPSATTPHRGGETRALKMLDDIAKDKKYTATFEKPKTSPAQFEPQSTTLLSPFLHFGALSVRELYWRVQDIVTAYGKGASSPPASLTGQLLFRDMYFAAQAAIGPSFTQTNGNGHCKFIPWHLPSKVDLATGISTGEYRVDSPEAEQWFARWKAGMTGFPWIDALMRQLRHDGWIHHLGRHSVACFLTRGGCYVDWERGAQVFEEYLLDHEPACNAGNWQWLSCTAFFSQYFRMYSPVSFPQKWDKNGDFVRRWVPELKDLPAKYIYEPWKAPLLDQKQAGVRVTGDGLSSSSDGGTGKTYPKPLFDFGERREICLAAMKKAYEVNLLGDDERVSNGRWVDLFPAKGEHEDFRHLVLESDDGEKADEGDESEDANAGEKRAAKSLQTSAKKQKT

[3] = molecular target: T3, Rad10 of Beauveria bassiana (Beauveria bassiana) (UniProt J4UQI9)
T3 sequence: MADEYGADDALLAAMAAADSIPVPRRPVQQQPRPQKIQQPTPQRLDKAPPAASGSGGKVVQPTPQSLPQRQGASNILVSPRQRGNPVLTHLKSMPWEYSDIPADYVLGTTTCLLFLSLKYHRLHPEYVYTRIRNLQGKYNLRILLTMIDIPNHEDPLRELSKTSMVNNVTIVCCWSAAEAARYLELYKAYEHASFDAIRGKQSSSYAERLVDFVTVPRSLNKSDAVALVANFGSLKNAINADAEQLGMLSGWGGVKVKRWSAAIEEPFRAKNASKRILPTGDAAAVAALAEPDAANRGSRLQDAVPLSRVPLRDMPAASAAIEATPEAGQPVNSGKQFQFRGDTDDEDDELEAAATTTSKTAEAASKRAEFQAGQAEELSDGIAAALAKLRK

Measured: binding

Rad16A of Beauveria bassiana
no binding: [1] | [2] | [3]

Rad16B of Beauveria bassiana
no binding: [1] | [2] | [3]

Rad5 ortholog of Beauveria bassiana
no binding: [1] | [2] | [3]
